In patent US20100330094A1:
Results are given in words; binding and its absence hold for the method and conditions named.

Key:
Assay in all cases: capture ELISA: NI-0801 coated, concentration range of NusA fusion protein, revealed with anti-NusA antibody
huMIPb (human) = biological target: huMIPb (human)
huRantes (human) = biological target: huRantes (human)
[1] = biological target: cyRantes (cynomolgus (prefix cy, as in cyIP-10))
huMIPa (human) = biological target: huMIPa (human)
[2] = biological target: cyMIG (cynomolgus (prefix cy, as in cyIP-10))
[3] = biological target: moRantes (mouse (prefix mo, as in moIP-10))

binding (huMIPb (human)): no binding (tested: about 2e-7 M) | binding (huRantes (human)): no binding (tested: about 2e-7 M) | binding [1]: no binding (tested: about 2e-7 M) | binding (huMIPa (human)): no binding (tested: about 2e-7 M) | binding [2]: no binding (tested: about 2e-7 M) | binding [3]: no binding (tested: about 2e-7 M)
B1: NI-0801, IgG1 format (antibody, V domains shown)
VH: QVQLVESGGGVVQPGRSLRLSCAASGFTFSNSGIHWVRQAPGKGLEWVAVISYDGSNKYYADSVKGRFTISRDNSKNTLYLQMNSLRAEDTAVYYCARLRDNAEYTDYWGQGTLVTVSS
VL: NFMLTQPHSVSESPGKTVTISCTGSGGSIASNYVQWYQQRPGSSPTTVIYEDNQRPSGVPDRFSGSIDSSSNSASLTISGLKTEDEADYYCQSYDPLPVWVFGGGTKLTVLG
